Screen size: about 390,000 compounds; about 760 (0.19%) were called active. The inconclusive results got no clear call from the source; some entries with a clear call stand among them for comparison. Calls follow the shape of the dose curve; as a rule, active = well fitted inhibition curve with a large enough effect; inconclusive = small, poorly fitted or top-dose-only effect; inactive = flat fitted curve, though single readings scatter. A potency beside an inconclusive call is a rough fit, not a confirmed value.
assay: qHTS for Inhibitors of Vif-A3F Interactions: qHTS; conditions: HeLa A3F-eYFP + Vif (tagged APOBEC3F with the HIV-1 protein that degrades it), YFP fluorescence increase; series mostly up to 46.1 µM; also: nearly all actives have a fitted effect of over 65% in size
Outline: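 HeLa cells stably expressing Vif plus C-terminally eYFP-tagged A3F were seeded, incubated overnight at 37 deg C, dosed with compound, incubated overnight again at 37 deg C. Yellow fluorescence (Ex 488/Em 500-530) reported blocked Vif-mediated A3F-eYFP degradation.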
Potency is read from the fitted curve at half-maximal effect.

Row | SMILES | Potency
1 | Cc1ccc(NC(=O)/C(C#N)=C/c2ccc(C)s2)c(C)c1 | inconclusive: 22.4 µM [inhibitor, single point]
2 | COc1cc(CC2C(=O)Nc3ccccc32)cc(C)c1O (stereo unspecified) | inactive
3 | COc1cccc(-c2nnc(SCC(=O)Nc3cc(C)on3)o2)c1 | inconclusive: 22.4 µM [inhibitor, single point]
4 | c1ccc(CN=C2Nc3ccccc3CS2)nc1 | inconclusive: 35.5 µM [inhibitor, single point]
5 | O=C(Nc1nnc(-c2ccc(Br)cc2)o1)c1ccco1 | inconclusive: 35.5 µM [inhibitor, single point]
6 | CC(C)c1ccc(OCC(=O)Nc2c(C(=O)c3ccc(F)cc3)oc3ccccc23)cc1 | inactive
7 | C/C=C/CSc1nc2c(c(=O)[nH]c(=O)n2C)n1Cc1ccc(C)cc1 | inactive
8 | O=C(CNC(=O)c1cccc(F)c1)N/N=C/c1ccc(O)c([N+](=O)[O-])c1 | inconclusive: 35.5 µM [inhibitor, single point]
9 | Cc1ccc(N/N=C(\Cc2nc3ccccc3[nH]2)c2ccccc2)cc1 | inconclusive: 10 µM [inhibitor, partial curve, poor fit]
10 | O=C1OCCN1C(=O)[C@H]1[C@H](c2ccc([N+](=O)[O-])cc2)C(c2cccc(Cl)c2)=NN1c1ccc(Br)cc1 | inactive
11 | CCN(CC)CCCn1c2c(c(SCC(=O)Nc3ccc(F)c(F)c3)nc1=O)CCC2 | inactive
12 | C=CCSc1nccc(-c2cc(Cl)sc2Cl)n1 | inconclusive: 6.31 µM [inhibitor, single point]
13 | CCn1cc(C(=O)NCCCN2CCCC(C)C2)c(=O)c2cc(S(=O)(=O)N3CCc4ccccc4C3)ccc21 (stereo unspecified) | inconclusive: 35.5 µM [inhibitor, single point]
14 | Cc1ccc(S(=O)(=O)c2cc3ccccc3oc2=O)cc1 | inactive
15 | Cc1[nH]n(-c2ccc(Br)cc2)c(=O)c1/C=N/NC(=O)c1ccccc1 | inconclusive: 8.91 µM [inhibitor, partial curve, poor fit]
16 | COc1cccc(CN(C)C(=O)C(Cc2ccccc2)NC(=O)c2ccccc2)c1OC (stereo unspecified) | inconclusive: 5.62 µM [inhibitor, single point]
17 | COc1ccc(Nc2nc(N/N=C/c3ccc(N(C)C)cc3)nc(C)c2[N+](=O)[O-])cc1 | inconclusive: 10 µM [inhibitor, partial curve, poor fit]
18 | N#Cc1c(N)n(-c2cccc(Cl)c2)c2nc3ccccc3nc12 | inactive
19 | Cn1c(CCC(=O)OCC(=O)NCC(F)(F)F)nc(=O)c2ccccc21 | inconclusive: 5.62 µM [inhibitor, single point]
20 | Cc1c(C)n(Cc2ccccc2)c2ccc(C(=O)OCCCN(C)C)cc12 | inactive
21 | Cc1cccc(NC(=O)C2CCC(CNS(=O)(=O)c3ccc(Br)s3)CC2)c1 (stereo unspecified) | inconclusive: 35.5 µM [inhibitor, single point]
22 | COc1ccc(OC)c(S(=O)(=O)Nc2ccc(-c3ccc4nncn4n3)cc2)c1 | inactive

As entered above.
Value for COc1ccc(OC)c(S(=O)(=O)Nc2ccc(-c3ccc4nncn4n3)cc2)c1 under Potency: inactive
Value for Cc1ccc(NC(=O)/C(C#N)=C/c2ccc(C)s2)c(C)c1 under Potency: inconclusive: 22.4 µM [inhibitor, single point]
Value for CCN(CC)CCCn1c2c(c(SCC(=O)Nc3ccc(F)c(F)c3)nc1=O)CCC2 under Potency: inactive
Value for CCn1cc(C(=O)NCCCN2CCCC(C)C2)c(=O)c2cc(S(=O)(=O)N3CCc4ccccc4C3)ccc21 (stereo unspecified) under Potency: inconclusive: 35.5 µM [inhibitor, single point]

Next part:

Row | SMILES | Potency
23 | O=C(Nc1ccc(S(=O)(=O)N2CCOCC2)cc1)c1ccc2c(c1)OCO2 | inactive
24 | CC(NC(=S)NC(=O)c1cccs1)c1ccccc1 (stereo unspecified) | inconclusive: 35.5 µM [inhibitor, single point]
25 | Cc1cc(C(=O)c2ccc3ccccc3c2)c(C)o1 | inconclusive: 0.794 µM [inhibitor, full curve, poor fit]
26 | O=c1[nH]c2ccccc2nc1/C=C(\O)c1cccs1 | active: 10 µM
27 | CCc1ccc(CNC(=O)C2Cc3cc(S(=O)(=O)N4CCCCCC4)ccc3N2C(C)=O)cc1 (stereo unspecified) | inactive
28 | COc1cc(/C=C2\SC(N)=NC2=O)cc(Cl)c1O | active: 11.2 µM
29 | O=C1C=CC(=Nc2ccc(F)cc2)O1 | inconclusive: 2.82 µM [inhibitor, single point]
30 | CCC(C)Nc1nc(N)c([N+](=O)[O-])c(N2CCCCCC2)n1 (stereo unspecified) | inconclusive: 15.8 µM [inhibitor, single point]
31 | CCOc1ccccc1N1CCN(c2nc(N)c(C#N)c(CC#N)c2C#N)CC1 | inconclusive: 25.1 µM [inhibitor, partial curve, poor fit]
32 | Cc1n[nH]c(C)c1CCN(C)C(=O)C1CCC(=O)N(CC2CCCCC2)C1 (stereo unspecified) | inconclusive: 35.5 µM [inhibitor, single point]
33 | CCCCn1c(N)c(S(=O)(=O)c2ccc(C)cc2)c2nc3ccccc3nc21 | inconclusive: 35.5 µM [inhibitor, single point]
34 | O=C1CSC(=S)N1Nc1ccccc1 | inconclusive: 22.4 µM [inhibitor, single point]
35 | Cc1cc(Nc2ccc(Cl)cc2)nc(NCc2ccccc2)n1 | inactive
36 | Cc1ccc(CO/N=C\Cc2snc(Sc3ncc(C(F)(F)F)cc3Cl)c2C#N)cc1 | inconclusive: 17.8 µM [inhibitor, single point]
37 | CCCN(CCC)S(=O)(=O)c1ccc(C(=O)Nc2sc3c(c2C(=O)OC)CCN(CC)C3)cc1 | inconclusive: 31.6 µM [inhibitor, single point]
38 | Cc1ccnc(-n2sc3ccccc3c2=O)n1 | inconclusive: 22.4 µM [inhibitor, single point]
39 | CCOC(=O)c1cc(NC(=O)c2ccccc2)c(=O)n2c1oc1ccccc12 | inconclusive: 12.6 µM [inhibitor, partial curve]
40 | CCC1C/C(=C\c2cccnc2)C(=O)/C(=C/c2cccnc2)C1 (stereo unspecified) | inconclusive: 6.31 µM [inhibitor, single point]
41 | COCCN(Cc1nc(-c2ccc(C(F)(F)F)cc2)no1)C(C)C | inconclusive: 14.1 µM [inhibitor, partial curve, poor fit]
42 | COc1ccc(CCN(C)C(=O)C2CCN(C(=O)Nc3ccccc3)CC2)cc1OC | inconclusive: 22.4 µM [inhibitor, single point]
43 | O=C(CCc1ccccc1)NC(=S)Nc1ccccc1[N+](=O)[O-] | inconclusive: 35.5 µM [inhibitor, single point]
44 | OCC1(Cc2ccccc2)CCCN(Cc2ccc(-c3ccco3)cc2)C1 (stereo unspecified) | inconclusive: 10 µM [inhibitor, partial curve, poor fit]

Row | SMILES | Potency
45 | COc1cc2c(C(=O)NCc3ccc4c(c3)OCO4)cn(CC(C)C)c(=O)c2cc1OC | inconclusive: 14.1 µM [inhibitor, single point]
46 | CCN(CC)C1=CC2=CC(=C(C#N)C#N)CCC2CC1 (stereo unspecified) | inconclusive: 11.2 µM [inhibitor, partial curve, poor fit]
47 | N#Cc1c(-c2ccccc2)cc(C2CC2)nc1SCC(=O)c1cccs1 | inconclusive: 15.8 µM [inhibitor, partial curve, poor fit]
48 | COc1cc(NC2CCCCC2O)c2nc(-c3ccc(Cl)cc3)ccc2c1 (stereo unspecified) | inconclusive: 35.5 µM [inhibitor, single point]
49 | CCOc1ccc2nc(NC(=O)CS(=O)(=O)c3ccc(Cl)cc3)sc2c1 | inconclusive: 5.62 µM [inhibitor, single point]
50 | CC(=O)O[C@]1(C(C)=O)CC[C@H]2[C@@H]3C=CC4=CC(=O)C=C[C@]4(C)[C@H]3CC[C@@]21C | inconclusive: 35.5 µM [inhibitor, single point]
51 | CCOC(=O)c1cnc(-n2nc(C)cc2C)nc1NNc1nc(-c2ccccc2)cc(-c2ccccc2)n1 | active: 7.08 µM
52 | Cc1ccc(-n2nnnc2C(=Cc2ccc(N(C)C)cc2)c2nnnn2-c2ccc(C)cc2)cc1 | inconclusive: 22.4 µM [inhibitor, partial curve, poor fit]
53 | Cc1ccc(C)c(NC(=O)CN2C(=O)COc3ccc(Cl)cc32)c1 | inconclusive: 22.4 µM [inhibitor, partial curve, poor fit]
54 | Nc1[nH]n(-c2ccccc2)c(=O)c1N=Nc1ccccc1 | inactive
55 | Cc1cc(/C=N/n2cnnc2)c(C)n1-c1ccc(OCc2ccc(Cl)cc2)cc1 | inconclusive: 35.5 µM [inhibitor, single point]
56 | CC(C)CCNC(=O)C(=O)Nc1ccc2c(c1)N(S(=O)(=O)c1cccs1)CCC2 | inconclusive: 35.5 µM [inhibitor, partial curve, poor fit]
57 | CC(C)c1ccc(S(=O)(=O)/N=C2/C=C(Sc3ncn[nH]3)C(=O)c3ccccc32)cc1 | inconclusive: 35.5 µM [inhibitor, single point]
58 | CSCCC(NS(=O)(=O)c1ccc(Cl)cc1)C(=O)OCc1c(Cl)cccc1Cl (stereo unspecified) | inactive
59 | COc1ccc(S(=O)(=O)N2CCCCC2)cc1NC(=O)CCNC(=O)c1ccco1 | inconclusive: 35.5 µM [inhibitor, single point]
60 | CC(C)(C)c1ccc2c(c1)OC(C(=O)N/N=C/c1ccc([N+](=O)[O-])o1)CO2 (stereo unspecified) | inconclusive: 2.82 µM [inhibitor, single point]
61 | O=C(/C=C\c1ccc(-c2cccc([N+](=O)[O-])c2)o1)N1CCOCC1 | inconclusive: 5.62 µM [inhibitor, single point]
62 | COCCn1c(=O)[nH]c2cc(C(=O)NCCN3CCN(c4cccc(Cl)c4)CC3)ccc2c1=O | inactive
63 | CCOc1ccc(NS(=O)(=O)c2ccc3[nH]c4c(c3c2)CCCC4)cc1 | inconclusive: 14.1 µM [inhibitor, single point]
64 | COc1ccc(Cl)cc1NC(=O)CN1CCCC1 | inactive
65 | CCOC(=O)c1ccc2c(c1)n(CCO)c(C)[n+]2CC | inactive
66 | COC(=O)C1=C(C)N(Cc2ccccc2)C(=S)N[C@H]1c1cccc(F)c1 | inconclusive: 35.5 µM [inhibitor, single point]

— PubChem BioAssay AID602313 (National Center for Advancing Translational Sciences (NCATS), 2012)
